# Experimental data reported in the supplement of paper PMC10032668.
# Amino acid sequences for entries named in this document (tags omitted).
# DCTN3, O75935, UniProt O75935, whole entry: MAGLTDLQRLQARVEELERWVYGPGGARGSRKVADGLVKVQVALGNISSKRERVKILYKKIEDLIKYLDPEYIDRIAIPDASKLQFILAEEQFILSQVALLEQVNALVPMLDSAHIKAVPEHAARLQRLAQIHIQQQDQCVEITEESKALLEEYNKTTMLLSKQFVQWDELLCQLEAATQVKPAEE
# DLX6, P56179, UniProt P56179, whole entry: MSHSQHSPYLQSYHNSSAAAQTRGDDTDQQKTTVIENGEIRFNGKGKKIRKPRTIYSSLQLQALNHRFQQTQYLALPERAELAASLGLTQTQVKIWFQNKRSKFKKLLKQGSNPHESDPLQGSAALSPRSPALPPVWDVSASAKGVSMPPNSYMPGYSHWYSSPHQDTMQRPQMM
# NDUFV1, P49821, UniProt P49821, whole entry: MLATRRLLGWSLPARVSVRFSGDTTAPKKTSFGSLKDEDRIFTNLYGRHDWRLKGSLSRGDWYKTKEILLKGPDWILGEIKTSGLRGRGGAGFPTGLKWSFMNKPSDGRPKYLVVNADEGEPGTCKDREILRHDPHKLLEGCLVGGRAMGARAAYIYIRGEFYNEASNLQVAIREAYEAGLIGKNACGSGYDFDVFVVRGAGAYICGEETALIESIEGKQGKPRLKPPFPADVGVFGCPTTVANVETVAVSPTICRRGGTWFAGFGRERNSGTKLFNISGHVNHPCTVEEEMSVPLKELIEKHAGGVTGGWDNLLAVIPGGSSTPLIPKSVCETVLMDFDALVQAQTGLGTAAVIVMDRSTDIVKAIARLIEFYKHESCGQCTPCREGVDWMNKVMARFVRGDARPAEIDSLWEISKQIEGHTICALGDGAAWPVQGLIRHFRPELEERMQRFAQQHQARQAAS
# AK6, Q9Y3D8, UniProt Q9Y3D8, whole entry: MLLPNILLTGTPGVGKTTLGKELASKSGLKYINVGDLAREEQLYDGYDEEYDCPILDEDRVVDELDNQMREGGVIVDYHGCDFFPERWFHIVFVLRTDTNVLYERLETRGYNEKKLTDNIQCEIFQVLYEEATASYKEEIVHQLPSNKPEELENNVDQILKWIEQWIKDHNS
# SRSF9, Q13242, UniProt Q13242, whole entry: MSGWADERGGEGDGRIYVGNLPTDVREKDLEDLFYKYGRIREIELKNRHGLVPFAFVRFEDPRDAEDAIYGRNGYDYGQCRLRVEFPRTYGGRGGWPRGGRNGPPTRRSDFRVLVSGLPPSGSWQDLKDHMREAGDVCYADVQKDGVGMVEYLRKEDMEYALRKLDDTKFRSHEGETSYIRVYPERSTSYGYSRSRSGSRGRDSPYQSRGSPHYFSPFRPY
# CLPX, O76031, UniProt O76031, whole entry: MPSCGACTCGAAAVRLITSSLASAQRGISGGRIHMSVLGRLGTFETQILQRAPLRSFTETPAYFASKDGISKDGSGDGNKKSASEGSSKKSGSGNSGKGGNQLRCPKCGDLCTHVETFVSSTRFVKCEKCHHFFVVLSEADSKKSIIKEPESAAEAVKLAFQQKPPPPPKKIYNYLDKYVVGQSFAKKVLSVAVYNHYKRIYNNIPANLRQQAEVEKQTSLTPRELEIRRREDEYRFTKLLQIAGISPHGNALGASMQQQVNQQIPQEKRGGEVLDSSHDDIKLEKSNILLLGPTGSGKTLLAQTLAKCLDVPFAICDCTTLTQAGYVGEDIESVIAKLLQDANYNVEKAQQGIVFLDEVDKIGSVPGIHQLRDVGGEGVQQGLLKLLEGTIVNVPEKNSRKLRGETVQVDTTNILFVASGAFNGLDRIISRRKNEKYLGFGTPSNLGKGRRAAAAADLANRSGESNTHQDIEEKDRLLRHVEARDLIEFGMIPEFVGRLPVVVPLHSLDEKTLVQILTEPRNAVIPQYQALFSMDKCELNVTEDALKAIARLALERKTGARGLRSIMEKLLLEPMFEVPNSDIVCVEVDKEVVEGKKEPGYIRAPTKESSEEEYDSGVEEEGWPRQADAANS
# DMD, P11532, UniProt P11532, whole entry: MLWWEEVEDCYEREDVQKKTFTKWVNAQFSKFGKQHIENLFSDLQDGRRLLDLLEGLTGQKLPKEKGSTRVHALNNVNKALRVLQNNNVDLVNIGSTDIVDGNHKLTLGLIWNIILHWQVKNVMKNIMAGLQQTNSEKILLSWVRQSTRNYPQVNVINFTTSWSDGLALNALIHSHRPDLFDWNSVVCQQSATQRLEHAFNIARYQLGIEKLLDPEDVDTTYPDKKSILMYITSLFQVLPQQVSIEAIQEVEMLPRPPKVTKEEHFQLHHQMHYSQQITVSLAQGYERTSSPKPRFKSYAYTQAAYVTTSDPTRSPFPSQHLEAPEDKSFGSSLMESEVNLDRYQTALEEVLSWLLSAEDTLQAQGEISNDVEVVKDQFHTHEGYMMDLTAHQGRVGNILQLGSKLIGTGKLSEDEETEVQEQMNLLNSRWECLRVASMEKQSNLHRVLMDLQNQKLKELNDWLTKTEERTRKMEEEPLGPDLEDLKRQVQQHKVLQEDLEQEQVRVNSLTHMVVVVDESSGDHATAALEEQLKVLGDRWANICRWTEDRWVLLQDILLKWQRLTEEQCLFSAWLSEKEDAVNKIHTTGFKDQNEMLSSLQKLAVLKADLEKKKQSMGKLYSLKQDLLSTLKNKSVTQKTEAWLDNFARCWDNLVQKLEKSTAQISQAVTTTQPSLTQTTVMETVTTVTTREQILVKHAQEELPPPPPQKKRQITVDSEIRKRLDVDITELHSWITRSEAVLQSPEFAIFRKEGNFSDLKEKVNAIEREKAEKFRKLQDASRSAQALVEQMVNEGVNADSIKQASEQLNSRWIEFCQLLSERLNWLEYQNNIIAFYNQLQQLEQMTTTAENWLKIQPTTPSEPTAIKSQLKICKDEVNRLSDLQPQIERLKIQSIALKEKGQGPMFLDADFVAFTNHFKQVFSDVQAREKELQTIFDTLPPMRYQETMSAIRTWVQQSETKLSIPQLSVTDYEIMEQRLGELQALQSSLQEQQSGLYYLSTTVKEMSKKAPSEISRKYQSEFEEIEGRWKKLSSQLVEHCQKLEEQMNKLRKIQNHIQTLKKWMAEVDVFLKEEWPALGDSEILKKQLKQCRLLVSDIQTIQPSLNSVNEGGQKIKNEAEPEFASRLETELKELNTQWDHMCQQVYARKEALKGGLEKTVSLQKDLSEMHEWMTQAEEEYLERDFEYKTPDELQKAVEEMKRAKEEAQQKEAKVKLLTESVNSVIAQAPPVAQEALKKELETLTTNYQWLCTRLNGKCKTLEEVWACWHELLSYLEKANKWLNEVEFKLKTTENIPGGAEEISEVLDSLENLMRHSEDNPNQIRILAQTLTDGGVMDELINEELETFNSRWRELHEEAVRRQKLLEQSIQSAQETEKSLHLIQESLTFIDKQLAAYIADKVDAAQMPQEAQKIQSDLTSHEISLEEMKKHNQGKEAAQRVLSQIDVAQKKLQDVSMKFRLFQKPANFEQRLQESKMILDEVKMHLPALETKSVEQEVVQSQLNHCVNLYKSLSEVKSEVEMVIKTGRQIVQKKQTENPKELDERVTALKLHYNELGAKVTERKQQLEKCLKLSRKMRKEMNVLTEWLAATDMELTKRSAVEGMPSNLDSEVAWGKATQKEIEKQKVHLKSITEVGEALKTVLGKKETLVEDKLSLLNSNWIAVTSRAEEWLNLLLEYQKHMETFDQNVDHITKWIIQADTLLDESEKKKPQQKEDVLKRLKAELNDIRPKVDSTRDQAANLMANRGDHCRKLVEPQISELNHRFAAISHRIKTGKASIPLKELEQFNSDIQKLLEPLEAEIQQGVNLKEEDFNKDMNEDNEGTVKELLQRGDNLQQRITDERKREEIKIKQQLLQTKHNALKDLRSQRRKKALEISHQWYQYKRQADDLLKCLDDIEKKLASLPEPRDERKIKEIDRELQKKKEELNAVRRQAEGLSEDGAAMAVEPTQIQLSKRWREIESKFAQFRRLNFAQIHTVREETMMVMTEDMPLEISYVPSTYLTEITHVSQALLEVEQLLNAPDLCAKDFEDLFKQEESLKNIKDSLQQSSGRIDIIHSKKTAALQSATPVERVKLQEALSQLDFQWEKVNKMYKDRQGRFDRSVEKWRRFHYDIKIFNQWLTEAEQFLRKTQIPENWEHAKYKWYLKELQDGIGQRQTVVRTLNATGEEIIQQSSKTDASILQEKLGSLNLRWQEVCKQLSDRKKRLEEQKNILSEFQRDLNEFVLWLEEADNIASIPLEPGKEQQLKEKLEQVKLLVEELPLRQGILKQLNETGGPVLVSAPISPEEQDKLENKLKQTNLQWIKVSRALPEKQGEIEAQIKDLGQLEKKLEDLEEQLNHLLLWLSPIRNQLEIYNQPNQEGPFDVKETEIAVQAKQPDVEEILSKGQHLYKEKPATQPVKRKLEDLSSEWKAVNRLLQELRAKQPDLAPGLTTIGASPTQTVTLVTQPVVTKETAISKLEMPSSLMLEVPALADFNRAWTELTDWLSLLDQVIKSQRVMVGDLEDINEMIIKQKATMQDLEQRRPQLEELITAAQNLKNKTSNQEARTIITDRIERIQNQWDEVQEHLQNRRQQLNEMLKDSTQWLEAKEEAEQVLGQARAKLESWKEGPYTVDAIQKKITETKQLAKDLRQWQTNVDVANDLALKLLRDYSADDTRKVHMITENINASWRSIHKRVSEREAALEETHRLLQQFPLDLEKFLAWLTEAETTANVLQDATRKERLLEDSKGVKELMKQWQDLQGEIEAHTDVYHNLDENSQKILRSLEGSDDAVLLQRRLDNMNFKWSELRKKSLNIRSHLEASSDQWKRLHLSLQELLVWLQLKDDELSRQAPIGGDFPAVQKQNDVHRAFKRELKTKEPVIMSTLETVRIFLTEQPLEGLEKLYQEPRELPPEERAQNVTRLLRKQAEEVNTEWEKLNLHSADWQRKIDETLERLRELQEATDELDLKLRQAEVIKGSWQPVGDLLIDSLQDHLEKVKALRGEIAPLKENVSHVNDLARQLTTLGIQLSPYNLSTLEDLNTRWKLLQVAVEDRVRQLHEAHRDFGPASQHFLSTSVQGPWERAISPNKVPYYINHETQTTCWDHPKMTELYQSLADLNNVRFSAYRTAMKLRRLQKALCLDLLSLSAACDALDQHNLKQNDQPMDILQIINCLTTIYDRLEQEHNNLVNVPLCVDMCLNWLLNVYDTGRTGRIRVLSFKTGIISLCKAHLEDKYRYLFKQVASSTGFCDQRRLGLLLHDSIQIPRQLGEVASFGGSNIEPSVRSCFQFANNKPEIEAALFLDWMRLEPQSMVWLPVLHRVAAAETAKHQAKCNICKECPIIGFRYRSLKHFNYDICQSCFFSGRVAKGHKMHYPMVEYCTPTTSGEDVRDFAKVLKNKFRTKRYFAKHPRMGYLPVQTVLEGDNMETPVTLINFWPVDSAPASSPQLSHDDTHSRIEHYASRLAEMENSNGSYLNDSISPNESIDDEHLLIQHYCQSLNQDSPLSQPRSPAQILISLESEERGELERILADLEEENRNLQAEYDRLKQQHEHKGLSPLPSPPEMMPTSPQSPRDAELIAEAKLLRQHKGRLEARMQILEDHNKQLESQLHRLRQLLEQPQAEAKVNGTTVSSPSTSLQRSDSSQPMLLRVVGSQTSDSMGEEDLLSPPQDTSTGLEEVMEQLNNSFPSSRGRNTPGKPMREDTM
# SRPK1, Q96SB4, UniProt Q96SB4, whole entry: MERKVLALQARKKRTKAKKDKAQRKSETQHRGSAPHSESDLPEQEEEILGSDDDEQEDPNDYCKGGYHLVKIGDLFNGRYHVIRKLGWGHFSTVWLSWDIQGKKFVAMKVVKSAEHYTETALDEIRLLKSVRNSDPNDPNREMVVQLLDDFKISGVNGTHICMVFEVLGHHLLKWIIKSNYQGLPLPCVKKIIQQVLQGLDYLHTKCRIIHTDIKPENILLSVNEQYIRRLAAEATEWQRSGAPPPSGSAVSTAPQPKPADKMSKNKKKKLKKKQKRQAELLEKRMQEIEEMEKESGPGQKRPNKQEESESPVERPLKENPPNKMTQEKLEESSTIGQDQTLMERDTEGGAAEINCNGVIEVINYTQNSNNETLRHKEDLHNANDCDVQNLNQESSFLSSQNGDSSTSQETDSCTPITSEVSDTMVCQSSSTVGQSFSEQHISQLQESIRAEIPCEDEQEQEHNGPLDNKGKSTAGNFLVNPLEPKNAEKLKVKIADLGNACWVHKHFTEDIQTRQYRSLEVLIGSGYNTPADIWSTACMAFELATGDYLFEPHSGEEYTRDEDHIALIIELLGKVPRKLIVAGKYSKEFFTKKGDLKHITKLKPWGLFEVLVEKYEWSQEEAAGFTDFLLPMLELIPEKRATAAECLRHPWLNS
# The list shows a part of the results. The list holds hits alone, and they repeat only in part.
# Columns and labels:
# Assay in all cases: PRISMA enrichment of interactor (LFQ) in peptide spot vs all other peptide spots (log2 fold change); higher = stronger / more specific binding of the interactor to the peptide
# [1] = molecular target: AK4, P27144
# Protocol: (§1)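 PRISMA: 221 full-length sORF-encoded peptides (3-15 aa), plus SOS1/GLUT1 control peptides, were spot-synthesized on cellulose membranes in triplicate. Membranes were incubated with HEK293T lysate, and bound proteins were identified by LC-MS/MS with LFQ. Enrichment is the log2 fold change versus all other peptide spots; only significant interactors are listed (cutoff c=6, x0=2.8).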
# [2] = molecular target: ATIC, P31939
# Protocol: as §1
# [3] = molecular target: BCAS2, O75934
# Protocol: as §1
# [4] = molecular target: DCTN3, O75935
# Protocol: as §1
# [5] = molecular target: DLX6, P56179
# Protocol: as §1
# [6] = molecular target: MAGED2, Q9UNF1
# Protocol: as §1
# [7] = molecular target: MARK2, Q7KZI7
# Protocol: as §1
# [8] = molecular target: ORC3, Q9UBD5
# Protocol: as §1
# [9] = molecular target: QRICH1, Q2TAL8
# Protocol: as §1
# [10] = molecular target: AKIRIN1, Q9H9L7
# Protocol: as §1
# [11] = molecular target: ERCC3, P19447
# Protocol: as §1
# [12] = molecular target: FBXO21, O94952
# Protocol: as §1
# [13] = molecular target: LMBR1, Q8WVP7
# Protocol: as §1
# [14] = molecular target: NDUFV1, P49821
# Protocol: as §1
# [15] = molecular target: NECAP2, Q9NVZ3
# Protocol: as §1
# [16] = molecular target: NUBP2, Q9Y5Y2
# Protocol: as §1
# [17] = molecular target: PINX1, Q96BK5
# Protocol: as §1
# [18] = molecular target: PPP4R3A, Q6IN85
# Protocol: as §1
# [19] = substrate: SON, P18583
# Protocol: as §1
# [20] = molecular target: SPTSSA, Q969W0
# Protocol: as §1
# [21] = molecular target: THOC1, Q96FV9
# Protocol: as §1
# [22] = molecular target: UBXN1, Q04323
# Protocol: as §1
# [23] = molecular target: AK6, Q9Y3D8
# Protocol: as §1
# [24] = molecular target: ANP32B, Q92688
# Protocol: as §1
# [25] = molecular target: ANP32E, Q9BTT0
# Protocol: as §1
# [26] = molecular target: DDX21, Q9NR30
# Protocol: as §1
# [27] = molecular target: EBNA1BP2, Q99848
# Protocol: as §1
# [28] = molecular target: EIF6, P56537
# Protocol: as §1
# [29] = molecular target: GNL2, Q13823
# Protocol: as §1
# [30] = molecular target: GPC4, O75487
# Protocol: as §1
# [31] = molecular target: GTPBP4, Q9BZE4
# Protocol: as §1
# [32] = molecular target: HTATSF1, O43719
# Protocol: as §1
# [33] = molecular target: LARP1, Q6PKG0
# Protocol: as §1
# [34] = molecular target: LTV1, Q96GA3
# Protocol: as §1
# [35] = molecular target: MOV10, Q9HCE1
# Protocol: as §1
# [36] = molecular target: MRPL12, P52815
# Protocol: as §1
# [37] = molecular target: MRPS25, P82663
# Protocol: as §1
# [38] = molecular target: MRPS26, Q9BYN8
# Protocol: as §1
# [39] = molecular target: MRPS27, Q92552
# Protocol: as §1
# [40] = molecular target: MRPS31, Q92665
# Protocol: as §1
# [41] = molecular target: MRPS9, P82933
# Protocol: as §1
# [42] = molecular target: NAT10, Q9H0A0
# Protocol: as §1
# [43] = molecular target: NOB1, Q9ULX3
# Protocol: as §1
# [44] = molecular target: NOP2, P46087
# Protocol: as §1
# [45] = molecular target: PAF1, Q8N7H5
# Protocol: as §1
# [46] = molecular target: PTCD3, Q96EY7
# Protocol: as §1
# [47] = molecular target: RBM10
# Protocol: as §1
# [48] = molecular target: RBM34, P42696
# Protocol: as §1
# [49] = molecular target: RCN2, Q14257
# Protocol: as §1
# [50] = molecular target: RIOK2, Q9BVS4
# Protocol: as §1
# [51] = molecular target: RSL1D1, O76021
# Protocol: as §1
# [52] = molecular target: SART3, Q15020
# Protocol: as §1
# [53] = molecular target: SRSF9, Q13242
# Protocol: as §1
# [54] = molecular target: STAU1, O95793
# Protocol: as §1
# [55] = molecular target: SUPT5H, O00267
# Protocol: as §1
# [56] = molecular target: UPF1, Q92900
# Protocol: as §1
# [57] = molecular target: CHD8, Q9HCK8
# Protocol: as §1
# [58] = molecular target: CLPX, O76031
# Protocol: as §1
# [59] = molecular target: COG3, Q96JB2
# Protocol: as §1
# [60] = molecular target: DDX5, P17844
# Protocol: as §1
# [61] = molecular target: DDX50, Q9BQ39
# Protocol: as §1
# [62] = molecular target: DMD, P11532
# Protocol: as §1
# [63] = molecular target: DUSP3, P51452
# Protocol: as §1
# [64] = molecular target: EHD4, Q9H223
# Protocol: as §1
# [65] = molecular target: IARS2, Q9NSE4
# Protocol: as §1
# [66] = molecular target: MEMO1, Q9Y316
# Protocol: as §1
# [67] = molecular target: MRPL18, Q9H0U6
# Protocol: as §1
# [68] = molecular target: MRPS10, P82664
# Protocol: as §1
# [69] = molecular target: MSI1, O43347
# Protocol: as §1
# [70] = molecular target: NAMPT, P43490
# Protocol: as §1
# [71] = molecular target: NCKIPSD, Q9NZQ3
# Protocol: as §1
# [72] = molecular target: NUP153, P49790
# Protocol: as §1
# [73] = molecular target: OSTC, Q9NRP0
# Protocol: as §1
# [74] = molecular target: PICALM, Q13492
# Protocol: as §1
# [75] = molecular target: PRMT3, O60678
# Protocol: as §1
# [76] = molecular target: PUM1, Q14671
# Protocol: as §1
# [77] = molecular target: RELCH, Q9P260
# Protocol: as §1
# [78] = molecular target: RPF2, Q9H7B2
# Protocol: as §1
# [79] = molecular target: SCPEP1, Q9HB40
# Protocol: as §1
# [80] = molecular target: SRPK1, Q96SB4
# Protocol: as §1
# [81] = molecular target: TFB1M, Q8WVM0
# Protocol: as §1
# [82] = molecular target: UBAP2L, Q14157
# Protocol: as §1
# [83] = molecular target: UBR5, O95071
# Protocol: as §1
# [84] = molecular target: UMPS, P11172
# Protocol: as §1
binder,measurement,setting,value
MQWLLDCAMTGRK [RASSF4],PRISMA enrichment of interactor (log2),[1],5.63
same,PRISMA enrichment of interactor (log2),[2],5.36
same,PRISMA enrichment of interactor (log2),[3],4.46
same,PRISMA enrichment of interactor (log2),[4],6.67
same,PRISMA enrichment of interactor (log2),[5],8.59
same,PRISMA enrichment of interactor (log2),[6],4.44
same,PRISMA enrichment of interactor (log2),[7],6.19
same,PRISMA enrichment of interactor (log2),[8],4.71
same,PRISMA enrichment of interactor (log2),[9],7.48
MGTWNLGLLECRA [CYHR1],PRISMA enrichment of interactor (log2),[10],13.3
same,PRISMA enrichment of interactor (log2),[5],5.67
same,PRISMA enrichment of interactor (log2),[11],5.25
same,PRISMA enrichment of interactor (log2),[12],5.04
same,PRISMA enrichment of interactor (log2),[13],5.69
same,PRISMA enrichment of interactor (log2),[14],5.58
same,PRISMA enrichment of interactor (log2),[15],7.54
same,PRISMA enrichment of interactor (log2),[16],10.2
same,PRISMA enrichment of interactor (log2),[17],5.99
same,PRISMA enrichment of interactor (log2),[18],4.26
same,PRISMA enrichment of interactor (log2),[19],4.65
same,PRISMA enrichment of interactor (log2),[20],6.04
same,PRISMA enrichment of interactor (log2),[21],7.75
same,PRISMA enrichment of interactor (log2),[22],6.81
MARRQN [PECAM1],PRISMA enrichment of interactor (log2),[23],5.14
same,PRISMA enrichment of interactor (log2),[24],5.94
same,PRISMA enrichment of interactor (log2),[25],6.1
same,PRISMA enrichment of interactor (log2),[26],5.78
same,PRISMA enrichment of interactor (log2),[27],5.37
same,PRISMA enrichment of interactor (log2),[28],4.83
same,PRISMA enrichment of interactor (log2),[29],5.25
same,PRISMA enrichment of interactor (log2),[30],5.36
same,PRISMA enrichment of interactor (log2),[31],5.97
same,PRISMA enrichment of interactor (log2),[32],7.02
same,PRISMA enrichment of interactor (log2),[33],6.35
same,PRISMA enrichment of interactor (log2),[34],4.93
same,PRISMA enrichment of interactor (log2),[35],6.17
same,PRISMA enrichment of interactor (log2),[36],4.44
same,PRISMA enrichment of interactor (log2),[37],5.27
same,PRISMA enrichment of interactor (log2),[38],4.84
same,PRISMA enrichment of interactor (log2),[39],5.23
same,PRISMA enrichment of interactor (log2),[40],5.65
same,PRISMA enrichment of interactor (log2),[41],5.69
same,PRISMA enrichment of interactor (log2),[42],5.76
same,PRISMA enrichment of interactor (log2),[43],4.87
same,PRISMA enrichment of interactor (log2),[44],5.39
same,PRISMA enrichment of interactor (log2),[45],5.87
same,PRISMA enrichment of interactor (log2),[46],6.15
same,PRISMA enrichment of interactor (log2),[47],5.75
same,PRISMA enrichment of interactor (log2),[48],5.17
same,PRISMA enrichment of interactor (log2),[49],5.99
same,PRISMA enrichment of interactor (log2),[50],4.48
same,PRISMA enrichment of interactor (log2),[51],4.99
same,PRISMA enrichment of interactor (log2),[52],4.73
same,PRISMA enrichment of interactor (log2),[53],5.67
same,PRISMA enrichment of interactor (log2),[54],5.33
same,PRISMA enrichment of interactor (log2),[55],5.04
same,PRISMA enrichment of interactor (log2),[56],5.27
MHVILTQWLLLTNR [PPARD],PRISMA enrichment of interactor (log2),[1],5.59
same,PRISMA enrichment of interactor (log2),[57],6
same,PRISMA enrichment of interactor (log2),[58],5.32
same,PRISMA enrichment of interactor (log2),[59],7.8
same,PRISMA enrichment of interactor (log2),[60],6.34
same,PRISMA enrichment of interactor (log2),[61],4.47
same,PRISMA enrichment of interactor (log2),[62],7.69
same,PRISMA enrichment of interactor (log2),[63],5.2
same,PRISMA enrichment of interactor (log2),[64],5.39
same,PRISMA enrichment of interactor (log2),[65],5.36
same,PRISMA enrichment of interactor (log2),[66],4.83
same,PRISMA enrichment of interactor (log2),[67],6.35
same,PRISMA enrichment of interactor (log2),[68],5.01
same,PRISMA enrichment of interactor (log2),[69],4.34
same,PRISMA enrichment of interactor (log2),[70],5.73
same,PRISMA enrichment of interactor (log2),[71],5.76
same,PRISMA enrichment of interactor (log2),[16],5.27
same,PRISMA enrichment of interactor (log2),[72],5.64
same,PRISMA enrichment of interactor (log2),[73],5.08
same,PRISMA enrichment of interactor (log2),[74],5.24
same,PRISMA enrichment of interactor (log2),[75],6.22
same,PRISMA enrichment of interactor (log2),[76],5.22
same,PRISMA enrichment of interactor (log2),[9],4.54
same,PRISMA enrichment of interactor (log2),[77],3.9
same,PRISMA enrichment of interactor (log2),[78],4.46
same,PRISMA enrichment of interactor (log2),[79],6.93
same,PRISMA enrichment of interactor (log2),[80],7.89
same,PRISMA enrichment of interactor (log2),[81],4.5
same,PRISMA enrichment of interactor (log2),[82],5.91
same,PRISMA enrichment of interactor (log2),[83],6.07
same,PRISMA enrichment of interactor (log2),[84],5.84

# Pulled one by one from the entries so far:
binder,measurement,setting,value
MARRQN [PECAM1],PRISMA enrichment of interactor (log2),[38],4.84
MQWLLDCAMTGRK [RASSF4],PRISMA enrichment of interactor (log2),[2],5.36
MARRQN [PECAM1],PRISMA enrichment of interactor (log2),[23],5.14
MHVILTQWLLLTNR [PPARD],PRISMA enrichment of interactor (log2),[63],5.2
MQWLLDCAMTGRK [RASSF4],PRISMA enrichment of interactor (log2),[6],4.44
MARRQN [PECAM1],PRISMA enrichment of interactor (log2),[30],5.36
